Assay results: PMC7782687, “Insights into SusCD-mediated glycan import by a prominent gut symbiont” (Nature Communications, 2021)
Where a chain is given by its changes, count along the chain named. Results are given in words; binding and its absence hold for the method and conditions named. Some binding calls cover weakened binding; strength is not graded here.

Experiments:
[1] = target: T1, Bt1762 (SusD) SusDBR, seven FOS-binding residues changed to alanine (Bacteroides thetaiotaomicron) (UniProt Q8A6W4); assay: co-purification (IMAC by the His6 tag on Bt1762, SDS-PAGE); OM fractions (LDAO extract) of WT (Bt1762-his) and mutant strains grown on MM fructose; Ni column, 0.2% LDAO in 20 mM Tris, 300 mM NaCl pH 8
T1 sequence (chain, lipid anchor (lipoprotein)): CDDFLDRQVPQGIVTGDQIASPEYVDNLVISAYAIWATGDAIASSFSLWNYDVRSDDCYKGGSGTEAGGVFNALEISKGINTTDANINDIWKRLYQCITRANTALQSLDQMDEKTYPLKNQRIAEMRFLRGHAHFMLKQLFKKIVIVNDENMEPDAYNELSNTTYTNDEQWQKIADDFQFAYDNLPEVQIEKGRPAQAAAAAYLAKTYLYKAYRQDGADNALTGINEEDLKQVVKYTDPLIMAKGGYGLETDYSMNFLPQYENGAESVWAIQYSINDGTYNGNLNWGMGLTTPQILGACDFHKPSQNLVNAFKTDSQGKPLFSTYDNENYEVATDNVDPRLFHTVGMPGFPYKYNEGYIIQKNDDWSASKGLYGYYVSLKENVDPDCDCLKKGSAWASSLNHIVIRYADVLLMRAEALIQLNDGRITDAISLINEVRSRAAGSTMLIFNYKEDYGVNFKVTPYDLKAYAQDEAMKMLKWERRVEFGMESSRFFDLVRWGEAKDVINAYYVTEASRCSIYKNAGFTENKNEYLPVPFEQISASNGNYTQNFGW

[2] = target: T2, Bt1762 (SusD) W85A (Bacteroides thetaiotaomicron) (UniProt Q8A6W4); assay: as above
T2 sequence (chain, lipid anchor (lipoprotein)): T1 sequence (chain, lipid anchor (lipoprotein)) with A41D, A43N, A67D, A298C, A368R, A395Y

B1: Bt1763 (SusC) TonB-dependent transporter of the Bacteroides thetaiotaomicron levan utilisation locus (protein, UniProt Q8A6W3 26-1041)
chain: GQNITVKGNVTSKTDGQPIIGASVVETTATTNGTITDFDGNFTLSVPVNSTLKITYIGYKPVTVKAAAIVNVLLEEDTQMVDEVVVTGYTTQRKADLTGAVSVVKVDEIQKQGENNPVKALQGRVPGMNITADGNPSGSATVRIRGIGTLNNNDPLYIIDGVPTKAGMHELNGNDIESIQVLKDAASASIYGSRAANGVIIITTKQGKKGQIKINFDASVSASMYQSKMNVLNTEQYGRAMWQAYVNDGENPNGNALGYAYNWGYNADGNPVLYGMTLSKYLDSKNTMPVADTDWFDEITRTGVIQQYNLSVSNGSEKGSSFFSLGYYKNLGVIKDTDFDRFSARMNSDYKLIDDILTIGQHFTLNRTSEVQAPGGIIETALDIPSAIPVYASDGSWGGPVGGWPDRRNPRAVLEYNKDNRYTYWRMFGDAYVNLTPFKGFNLRSTFGLDYANKQARYFTYPYQEGTQTNNGKSAVEAKQEHWTKWMWNAIATYQLEVGKHRGDVMIGMELNREDDSHFSGYKEDFSILTPDYMWPDAGSGTAQAYGAGEGYSLVSFFGKMNYSYADRYLLSLTLRRDGSSRFGKNHRYATFPSVSLGWRITQENFMKELTWLDDLKLRASWGQTGNQEISNLARYTIYAPNYGTTDSFGGQSYGTAYDITGSNGGGVLPSGFKRNQIGNDNIKWETTTQTNVGIDFSLFKQSLYGSLEYYYKKATDILTEMAGVGVLGEGGSRWINSGAMKNQGFEFNLGYRNKTAFGLTYDLNGNISTYRNEILELPETVAANGKFGGNGVKSVVGHTYGAQVGYIADGIFKSQDEVDNHATQEGAAVGRIRYRDIDHNGVIDERDQNWIYDPTPSFSYGLNIYLEYKNFDLTMFWQGVQGVDIISDVKKKSDFWSASNVGFLNKGTRLLNAWSPTNPNSDIPALTRSDTNNEQRVSTYFVENGSFLKLRNIQLGYTVPAVISKKMRMDRLRFYCSAQNLLTIKSKNFTGEDPENPNFSYPIPVNITFGLNIGF
With B1 the binding [1] was “binds” and the binding [2] was “binds”.
